Experimental data reported in the supplement of paper PMC12067093, “Discovery and optimisation of a covalent ligand for TRIM25 and its application to targeted protein ubiquitination” (Chemical Science, 2025).
This is one part of the list.

Amino acid sequences for entries named in this document (tags omitted). A change or cut given only in a name is not applied to a line headed by its entry.
UniProt Q5VYK3, whole entry, looked up: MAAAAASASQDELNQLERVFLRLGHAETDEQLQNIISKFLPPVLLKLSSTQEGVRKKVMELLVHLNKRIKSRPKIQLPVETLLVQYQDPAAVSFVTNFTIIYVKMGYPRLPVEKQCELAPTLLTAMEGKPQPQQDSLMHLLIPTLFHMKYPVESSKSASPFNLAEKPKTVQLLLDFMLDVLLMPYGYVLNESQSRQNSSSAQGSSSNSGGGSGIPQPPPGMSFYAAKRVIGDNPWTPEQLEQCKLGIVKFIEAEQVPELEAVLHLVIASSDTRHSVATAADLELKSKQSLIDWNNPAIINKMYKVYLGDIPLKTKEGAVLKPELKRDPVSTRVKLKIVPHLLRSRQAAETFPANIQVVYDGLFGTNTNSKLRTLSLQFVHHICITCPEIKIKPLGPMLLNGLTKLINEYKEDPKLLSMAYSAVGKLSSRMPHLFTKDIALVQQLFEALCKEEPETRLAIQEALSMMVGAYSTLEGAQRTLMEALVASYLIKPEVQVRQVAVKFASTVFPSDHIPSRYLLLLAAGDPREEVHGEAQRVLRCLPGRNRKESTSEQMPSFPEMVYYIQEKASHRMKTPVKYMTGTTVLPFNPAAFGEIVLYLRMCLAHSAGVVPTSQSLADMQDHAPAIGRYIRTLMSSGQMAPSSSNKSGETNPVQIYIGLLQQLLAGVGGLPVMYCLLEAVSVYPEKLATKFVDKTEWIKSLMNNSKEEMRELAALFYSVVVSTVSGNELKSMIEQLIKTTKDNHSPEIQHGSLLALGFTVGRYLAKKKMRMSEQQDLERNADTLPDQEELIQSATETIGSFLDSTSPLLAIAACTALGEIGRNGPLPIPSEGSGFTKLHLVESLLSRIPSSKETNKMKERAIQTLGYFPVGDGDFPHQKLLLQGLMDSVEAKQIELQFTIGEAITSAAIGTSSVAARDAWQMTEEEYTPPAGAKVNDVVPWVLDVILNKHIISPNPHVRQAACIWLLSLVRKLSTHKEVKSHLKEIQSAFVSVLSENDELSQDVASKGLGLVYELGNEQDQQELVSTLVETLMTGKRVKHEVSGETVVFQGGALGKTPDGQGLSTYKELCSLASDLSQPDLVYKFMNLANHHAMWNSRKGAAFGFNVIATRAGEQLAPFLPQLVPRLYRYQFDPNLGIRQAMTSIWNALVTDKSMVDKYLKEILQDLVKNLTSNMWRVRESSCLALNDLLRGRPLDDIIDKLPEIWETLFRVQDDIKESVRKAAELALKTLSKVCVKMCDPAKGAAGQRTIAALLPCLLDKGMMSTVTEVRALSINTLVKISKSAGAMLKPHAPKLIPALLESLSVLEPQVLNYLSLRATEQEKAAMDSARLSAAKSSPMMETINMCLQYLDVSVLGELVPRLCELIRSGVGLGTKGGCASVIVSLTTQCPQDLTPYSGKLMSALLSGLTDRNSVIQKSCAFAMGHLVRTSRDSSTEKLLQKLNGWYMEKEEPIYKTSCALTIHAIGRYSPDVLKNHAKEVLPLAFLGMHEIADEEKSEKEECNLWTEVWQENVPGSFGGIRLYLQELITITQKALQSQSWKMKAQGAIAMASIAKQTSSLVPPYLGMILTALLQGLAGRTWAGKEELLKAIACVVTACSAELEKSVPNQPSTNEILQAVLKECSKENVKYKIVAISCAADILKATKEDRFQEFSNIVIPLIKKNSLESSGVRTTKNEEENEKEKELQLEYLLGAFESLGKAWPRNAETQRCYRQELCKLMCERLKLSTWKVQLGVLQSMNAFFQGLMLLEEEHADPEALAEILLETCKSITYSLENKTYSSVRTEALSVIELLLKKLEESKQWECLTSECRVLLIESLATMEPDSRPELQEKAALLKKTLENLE
UniProt Q96KQ7: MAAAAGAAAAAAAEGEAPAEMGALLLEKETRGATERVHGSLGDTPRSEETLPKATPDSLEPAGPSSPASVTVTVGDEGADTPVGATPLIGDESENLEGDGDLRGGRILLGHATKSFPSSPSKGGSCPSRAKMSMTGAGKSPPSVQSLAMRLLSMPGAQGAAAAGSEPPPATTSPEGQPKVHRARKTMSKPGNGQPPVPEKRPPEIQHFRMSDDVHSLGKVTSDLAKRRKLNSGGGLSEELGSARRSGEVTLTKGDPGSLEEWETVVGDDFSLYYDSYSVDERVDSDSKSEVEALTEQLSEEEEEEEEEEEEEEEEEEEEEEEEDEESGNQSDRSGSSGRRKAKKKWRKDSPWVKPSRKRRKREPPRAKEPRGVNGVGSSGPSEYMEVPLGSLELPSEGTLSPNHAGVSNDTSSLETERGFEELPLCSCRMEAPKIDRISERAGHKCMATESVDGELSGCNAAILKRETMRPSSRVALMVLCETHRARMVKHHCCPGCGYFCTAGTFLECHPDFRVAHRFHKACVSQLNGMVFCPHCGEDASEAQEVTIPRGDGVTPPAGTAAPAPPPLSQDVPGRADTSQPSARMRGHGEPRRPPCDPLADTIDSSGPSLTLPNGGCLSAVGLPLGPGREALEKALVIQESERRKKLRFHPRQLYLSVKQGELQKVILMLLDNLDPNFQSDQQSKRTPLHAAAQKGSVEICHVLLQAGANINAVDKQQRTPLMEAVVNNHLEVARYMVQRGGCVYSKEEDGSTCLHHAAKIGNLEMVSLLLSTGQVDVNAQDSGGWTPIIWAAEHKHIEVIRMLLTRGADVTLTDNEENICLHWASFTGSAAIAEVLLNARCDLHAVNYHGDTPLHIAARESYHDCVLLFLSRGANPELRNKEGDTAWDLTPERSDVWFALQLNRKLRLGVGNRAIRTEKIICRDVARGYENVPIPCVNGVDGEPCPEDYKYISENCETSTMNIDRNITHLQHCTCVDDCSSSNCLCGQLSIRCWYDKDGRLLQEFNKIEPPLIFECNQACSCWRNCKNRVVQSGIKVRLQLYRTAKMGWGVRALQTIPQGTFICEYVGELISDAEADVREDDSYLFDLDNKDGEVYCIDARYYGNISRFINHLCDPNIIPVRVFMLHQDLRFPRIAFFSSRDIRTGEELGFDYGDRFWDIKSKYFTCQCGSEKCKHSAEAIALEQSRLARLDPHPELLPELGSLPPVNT
UniProt Q13011: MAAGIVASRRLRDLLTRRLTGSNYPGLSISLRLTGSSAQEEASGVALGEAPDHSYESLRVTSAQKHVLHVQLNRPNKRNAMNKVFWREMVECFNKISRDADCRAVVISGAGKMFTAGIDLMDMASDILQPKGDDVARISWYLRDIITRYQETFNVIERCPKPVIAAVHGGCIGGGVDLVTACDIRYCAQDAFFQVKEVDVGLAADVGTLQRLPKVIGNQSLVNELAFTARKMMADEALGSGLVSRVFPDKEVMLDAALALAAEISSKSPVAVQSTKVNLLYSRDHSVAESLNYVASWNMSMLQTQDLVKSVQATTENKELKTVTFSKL
UniProt O75530, whole entry, looked up: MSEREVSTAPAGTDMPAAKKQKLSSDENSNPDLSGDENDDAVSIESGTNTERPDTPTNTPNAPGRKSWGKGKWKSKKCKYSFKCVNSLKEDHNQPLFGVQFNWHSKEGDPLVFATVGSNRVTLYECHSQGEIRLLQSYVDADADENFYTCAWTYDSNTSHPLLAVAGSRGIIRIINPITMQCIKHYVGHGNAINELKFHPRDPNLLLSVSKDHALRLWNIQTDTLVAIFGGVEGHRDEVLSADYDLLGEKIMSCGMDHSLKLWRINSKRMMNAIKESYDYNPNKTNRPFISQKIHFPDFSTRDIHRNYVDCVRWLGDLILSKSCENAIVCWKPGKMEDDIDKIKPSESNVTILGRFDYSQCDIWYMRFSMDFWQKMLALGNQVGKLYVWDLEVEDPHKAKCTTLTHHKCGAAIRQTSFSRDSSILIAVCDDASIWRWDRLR
UniProt P20042, whole entry, looked up: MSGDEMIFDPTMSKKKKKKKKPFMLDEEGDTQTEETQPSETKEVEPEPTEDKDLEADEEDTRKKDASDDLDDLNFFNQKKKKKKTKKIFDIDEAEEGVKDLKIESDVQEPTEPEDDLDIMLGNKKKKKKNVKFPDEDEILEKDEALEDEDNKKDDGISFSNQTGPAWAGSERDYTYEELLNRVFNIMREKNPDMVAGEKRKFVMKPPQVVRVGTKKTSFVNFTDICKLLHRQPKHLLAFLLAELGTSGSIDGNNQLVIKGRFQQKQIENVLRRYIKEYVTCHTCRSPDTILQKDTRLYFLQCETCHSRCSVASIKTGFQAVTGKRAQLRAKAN
UniProt Q7Z2Z2: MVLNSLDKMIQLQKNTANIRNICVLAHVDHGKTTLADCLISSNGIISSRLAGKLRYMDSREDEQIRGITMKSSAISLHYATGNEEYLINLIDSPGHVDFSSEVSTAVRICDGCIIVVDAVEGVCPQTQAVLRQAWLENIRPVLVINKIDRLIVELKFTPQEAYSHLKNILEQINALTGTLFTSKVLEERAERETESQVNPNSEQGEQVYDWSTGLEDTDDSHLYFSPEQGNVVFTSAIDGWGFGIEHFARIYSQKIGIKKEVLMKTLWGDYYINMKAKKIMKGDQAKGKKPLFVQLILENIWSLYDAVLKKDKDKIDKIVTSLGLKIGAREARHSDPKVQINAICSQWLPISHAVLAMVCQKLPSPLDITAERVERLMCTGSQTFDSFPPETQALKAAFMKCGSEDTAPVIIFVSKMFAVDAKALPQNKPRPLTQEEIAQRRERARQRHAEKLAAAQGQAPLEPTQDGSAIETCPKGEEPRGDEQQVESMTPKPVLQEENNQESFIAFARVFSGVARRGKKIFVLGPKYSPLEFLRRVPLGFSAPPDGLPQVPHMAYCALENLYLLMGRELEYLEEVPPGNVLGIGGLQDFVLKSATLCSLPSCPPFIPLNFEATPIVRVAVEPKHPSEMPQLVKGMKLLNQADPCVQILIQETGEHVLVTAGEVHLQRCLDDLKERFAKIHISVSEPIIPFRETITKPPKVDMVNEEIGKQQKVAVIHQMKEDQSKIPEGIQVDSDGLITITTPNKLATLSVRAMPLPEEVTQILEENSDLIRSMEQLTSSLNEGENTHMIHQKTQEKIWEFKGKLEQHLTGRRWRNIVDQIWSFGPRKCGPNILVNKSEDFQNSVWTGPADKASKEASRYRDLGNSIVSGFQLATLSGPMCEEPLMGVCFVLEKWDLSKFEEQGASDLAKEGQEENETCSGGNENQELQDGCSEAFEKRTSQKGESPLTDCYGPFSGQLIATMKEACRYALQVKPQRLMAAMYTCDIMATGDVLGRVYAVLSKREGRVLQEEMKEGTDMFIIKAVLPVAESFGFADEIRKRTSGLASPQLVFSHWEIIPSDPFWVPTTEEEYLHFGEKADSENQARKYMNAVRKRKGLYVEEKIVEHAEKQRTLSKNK
UniProt P41567, whole entry, looked up: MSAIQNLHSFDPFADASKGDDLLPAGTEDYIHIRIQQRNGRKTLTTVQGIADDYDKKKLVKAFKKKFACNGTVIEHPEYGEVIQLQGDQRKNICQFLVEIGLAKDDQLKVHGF
UniProt Q9H8V3: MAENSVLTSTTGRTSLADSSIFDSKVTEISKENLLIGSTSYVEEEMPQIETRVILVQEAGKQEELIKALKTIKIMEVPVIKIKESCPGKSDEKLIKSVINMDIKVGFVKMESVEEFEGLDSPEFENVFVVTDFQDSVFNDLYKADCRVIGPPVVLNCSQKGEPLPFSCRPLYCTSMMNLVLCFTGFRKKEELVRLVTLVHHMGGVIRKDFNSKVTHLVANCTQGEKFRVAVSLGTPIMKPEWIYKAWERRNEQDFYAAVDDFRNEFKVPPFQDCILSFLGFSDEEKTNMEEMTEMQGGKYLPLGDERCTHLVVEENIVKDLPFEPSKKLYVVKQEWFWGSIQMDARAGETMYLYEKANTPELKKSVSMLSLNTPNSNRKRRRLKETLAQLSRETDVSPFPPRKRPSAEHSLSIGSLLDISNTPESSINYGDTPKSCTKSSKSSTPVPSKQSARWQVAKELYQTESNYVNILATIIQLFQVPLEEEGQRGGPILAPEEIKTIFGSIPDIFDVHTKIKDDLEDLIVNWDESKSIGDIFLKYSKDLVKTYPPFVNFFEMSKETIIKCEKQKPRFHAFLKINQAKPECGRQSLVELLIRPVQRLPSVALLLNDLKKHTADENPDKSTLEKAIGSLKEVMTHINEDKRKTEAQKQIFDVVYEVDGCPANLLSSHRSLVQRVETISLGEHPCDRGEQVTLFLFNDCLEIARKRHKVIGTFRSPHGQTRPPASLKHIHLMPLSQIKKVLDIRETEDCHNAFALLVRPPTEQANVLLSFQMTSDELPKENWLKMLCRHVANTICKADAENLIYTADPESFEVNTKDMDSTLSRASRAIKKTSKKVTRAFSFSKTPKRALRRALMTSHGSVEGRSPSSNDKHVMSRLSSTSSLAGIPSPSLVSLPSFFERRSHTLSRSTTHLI
UniProt O60739, whole entry: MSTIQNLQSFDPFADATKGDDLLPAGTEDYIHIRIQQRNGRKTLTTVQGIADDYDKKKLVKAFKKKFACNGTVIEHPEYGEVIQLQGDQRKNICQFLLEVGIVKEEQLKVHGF
UniProt O14602, whole entry: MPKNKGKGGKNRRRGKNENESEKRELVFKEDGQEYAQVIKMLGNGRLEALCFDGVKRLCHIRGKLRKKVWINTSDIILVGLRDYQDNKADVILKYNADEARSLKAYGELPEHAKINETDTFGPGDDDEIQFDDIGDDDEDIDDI

Compound: CC1Cc2ccccc2N1C(=O)C1CCCN(C1)C(=O)CCl (mixture of isomers) [TRIM25 ligand 11 (diastereomer mixture)]
Experiment: probe-labelled cysteine peptide fold change vs DMSO (competition) (log2 fold change); higher = less target engagement (more negative = stronger competition)
Details: THP-1, incubation time: 4 h
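Also: competitive chemoproteomic profiling in live THP-1 cells with an iodoacetamide desthiobiotin (IA-DTB) probe, comparing probe-labelled peptide intensities in compound-treated cells against DMSO-treated controls.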

Row | Target | probe-labelled cysteine peptide fold change (10 µM) | probe-labelled cysteine peptide fold change (50 µM)
1 | EIF2S3_P41091_101_LDDPSCPRPECYR (UniProt P41091) | 0.0907 | 0.122
2 | ECPAS_Q5VYK3_386_TLSLQFVHHICITCPEIK (UniProt Q5VYK3) | -0.0502 | 0.0579
3 | EHMT2_Q96KQ7_1170_YFTCQCGSEK (UniProt Q96KQ7) | 0.112 | 0.136
4 | ECH1_Q13011_159_CPKPVIAAVHGGCIGGGVDLVTACDIR (UniProt Q13011) | -0.0604 | -0.0424
5 | EDC3_Q96F86_137_SQDVAVSPQQQQCSK (UniProt Q96F86) | 0.292 | -0.391
6 | EED_O75530_401_CTTLTHHK (UniProt O75530) | -0.0891 | -0.141
7 | EGFL7_Q9UHF1_269_IDSLSEQISFLEEQLGSCSCK (UniProt Q9UHF1) | -0.0599 | -0.0952
8 | EIF2S2_P20042_302+305_LYFLQCETCHSR (UniProt P20042) | 0.029 | 0.0527
9 | EFL1_Q7Z2Z2_953_GESPLTDCYGPFSGQLIATMK (UniProt Q7Z2Z2) | -0.055 | -0.00995
10 | EHMT2_Q96KQ7_754_EEDGSTCLHHAAK (UniProt Q96KQ7) | 0.0446 | 0.0523
11 | EHMT2_Q96KQ7_481_VALMVLCETHR (UniProt Q96KQ7) | -0.0165 | -0.0518
12 | EHMT2_Q96KQ7_426+428_GFEELPLCSCR (UniProt Q96KQ7) | 0.13 | -0.18
13 | EEF2_P13639_567_DLEEDHACIPIKK (UniProt P13639) | -0.0433 | -0.172
14 | EEF2_P13639_693_EGALCEENMR (UniProt P13639) | -0.0377 | -0.115
15 | EDEM1_Q92611_629_VINSSSNCNR (UniProt Q92611) | 0.0336 | 0.0444
16 | EED_O75530_126_VTLYECHSQGEIR (UniProt O75530) | 0.222 | 0.32
17 | ECM1_Q16610_259_TRPHWCCTR (UniProt Q16610) | 0.0561 | 0.108
18 | EIF2S1_P05198_98_VSPEEAIKCEDK (UniProt P05198) | -0.364 | -0.281
19 | EIF1_P41567_94_NICQFLVEIGLAK (UniProt P41567) | -0.205 | 0.00204
20 | EHMT2_Q96KQ7_957_YISENCETSTMNIDR (UniProt Q96KQ7) | -0.0966 | -0.126
21 | EIF2AK4_Q9P2K8_1084_HGAVQLCTPLLLPR (UniProt Q9P2K8) | 0.0789 | 0.156
22 | ECT2_Q9H8V3_157_VIGPPVVLNCSQK (UniProt Q9H8V3) | -0.183 | -0.0265
23 | EIF2A_Q9BY44_377_LISKPVASDSTYFAWCPDGEHILTATCAPR (UniProt Q9BY44) | -0.14 | 0.0907
24 | EIF2B2_P49770_194+198_FHVIVAECAPFCQGHEMAVNLSK (UniProt P49770) | 0.0395 | 0.398
25 | EHHADH_Q08426_227+233_QHPGCLAQEACVR (UniProt Q08426) | 0.147 | 0.0162
26 | EIF1B_O60739_94_NICQFLLEVGIVK (UniProt O60739) | -0.126 | 0.0426
27 | EIF1AY_O14602_51_LEALCFDGVKR (UniProt O14602) | -0.122 | 0.0628
28 | EDEM2_Q9BV94_408_VECGFATIK (UniProt Q9BV94) | -0.02 | 0.0494
29 | EIF3A_Q14152_58_YLELCVDLRK (UniProt Q14152) | -0.202 | -0.0665

Reformatted: entries from further up
Row	Target	probe-labelled cysteine peptide fold change (10 µM)	probe-labelled cysteine peptide fold change (50 µM)
4	ECH1_Q13011_159_CPKPVIAAVHGGCIGGGVDLVTACDIR (UniProt Q13011)	-0.0604	-0.0424
8	EIF2S2_P20042_302+305_LYFLQCETCHSR (UniProt P20042)	0.029	0.0527
9	EFL1_Q7Z2Z2_953_GESPLTDCYGPFSGQLIATMK (UniProt Q7Z2Z2)	-0.055	-0.00995
12	EHMT2_Q96KQ7_426+428_GFEELPLCSCR (UniProt Q96KQ7)	0.13	-0.18
13	EEF2_P13639_567_DLEEDHACIPIKK (UniProt P13639)	-0.0433	-0.172
26	EIF1B_O60739_94_NICQFLLEVGIVK (UniProt O60739)	-0.126	0.0426
27	EIF1AY_O14602_51_LEALCFDGVKR (UniProt O14602)	-0.122	0.0628
